# These are yes or no findings as the source states them, for the method shown. Binding calls can cover weak binding; strength is not graded here. Where a sequence is shown, tags or fusion partners need not be part of it. For some assays here: Binding seen in cells or lysates may run through a third protein.
# How the values were obtained:
# [1] = biological target: T1, full length hOAS1-p44 isoform fused to the GAL4-BD domain (pGBKT7) (human) (UniProt P00973); test: two-hybrid; Matchmaker Gold library screen: GAL4-BD bait in Y2HGold mated at 30 °C for 24 h with Y187 holding a universal human cDNA library fused to GAL4-AD; selection on DDO, then TDO/A and QDO/A; inserts of colonies from QDO/A plates sequenced; about 2 x 10^6 clones screened
# T1 sequence: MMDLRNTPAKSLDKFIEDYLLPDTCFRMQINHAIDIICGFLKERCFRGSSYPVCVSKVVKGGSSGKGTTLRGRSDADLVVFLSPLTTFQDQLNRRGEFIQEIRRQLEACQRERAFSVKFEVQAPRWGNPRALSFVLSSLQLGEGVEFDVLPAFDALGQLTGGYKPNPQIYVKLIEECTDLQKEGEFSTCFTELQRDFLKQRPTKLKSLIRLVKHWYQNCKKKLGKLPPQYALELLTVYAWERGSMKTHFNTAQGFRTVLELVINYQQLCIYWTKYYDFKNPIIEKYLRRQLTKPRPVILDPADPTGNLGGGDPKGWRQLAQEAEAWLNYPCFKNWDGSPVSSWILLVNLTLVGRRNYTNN
# [2] = biological target: T2, 3xFlag-tagged full-length hOAS1 p44 isoform (p3xFlag-CMV-OAS1-p44) (human) (UniProt P00973); test: co-IP; A549 cells transiently transfected with p3xFlag-CMV-OAS1-p44, lysed at 48 h (1% Triton X-100, 0.1% SDS, 150 mM NaCl, 50 mM Tris-HCl); anti-Flag agarose overnight at 4 °C; IgG beads as control; blots with anti-SVIL and anti-Flag
# T2 sequence: T1 sequence
binding [1],binding [2],Substance
binds,–,"Supervillin (SVIL) 178 aa prey peptide (aa 1615-1792), GAL4-AD fusion (human) (domain or fragment)"
–,binds,endogenous full-length Supervillin (SVIL) (from UniProt O95425-2)
